# Measured values from PubChem BioAssay AID2685 (National Center for Advancing Translational Sciences (NCATS), 2010).
# The other results are listed elsewhere or left out. Shown are side measurements of this screen, not its main read-out; they come without a call. The list favours compounds with an active or inconclusive main result. Words in brackets tell the shape of the fitted curve; partial curves, single points and poor fits give uncertain potencies.
# Assay: qHTS Assay for Lipid Storage Modulators in Drosophila S3 Cells;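 as to cell number change: cells counted by Cell Tracker Red CMTPX staining in the red channel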
# Conditions: BODIPY lipid droplet fluorescence, 18-24 h; for cell number change: measured here: cell count max response, cells fed with added oleic acid
# Procedure, shortened: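 Drosophila S3 cells loaded with oleic acid (400 uM, as added) and compounds at several concentrations; lipid droplets imaged by 488-nm laser-scanning cytometry, 500–530 nm intensity and object ratio to cell channel. Percent activity normalized to 20 uM Triacsin C.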
# [1] = measured here: cell number channel AC50, cells fed with added oleic acid
# [2] = measured here: lipid fluorescence (Fed channel) AC50, cells fed with added oleic acid
SMILES,cell number change [%],AC50 [1],AC50 [2]
N/C(=N\OC(=O)COc1ccc(Br)cc1)c1ccncc1,58.9,"29100 nM [rising, single point]","2060 nM [rising, partial curve]"
Cc1ccc(O)c(NC(=S)NC(=O)CC(C)C)c1,50,"1840 nM [rising, partial curve, poor fit]","29100 nM [rising, single point]"
CCOC(=O)C1(CCOc2ccccc2)CCN(Cc2ccc(C)o2)CC1,-46.4,–,–
O=C(CNC(=O)c1ccccc1F)NNC(=O)c1ccccc1O,19.4,–,"6510 nM [falling, single point]"
CN1CCN(c2ccccc2NC(=O)c2ccc([N+](=O)[O-])o2)CC1,-37.2,"23100 nM [falling, single point]",–
COc1ccc(/C=C/C(=O)c2cc(Cl)cc(Cl)c2O)c(OC)c1,–,"920 nM [rising, partial curve]",–
COc1ccc(C(=O)NC(C)c2nnc(SCC(=O)Nc3nc(C)cs3)n2C)cc1 (stereo not drawn),11.3,"461 nM [rising, full curve, poor fit]","6510 nM [rising, single point]"
O=C(Nc1nc(-c2ccccc2Cl)cs1)c1cccnc1,2.06,–,"6510 nM [rising, single point]"
O=C(O)CN1C(=O)CSC1=S,14.4,"4.11 nM [rising, full curve, poor fit]","29100 nM [rising, single point]"
CC(=O)N/C(=C\c1ccc(F)cc1)C(=O)N(C)C,-18.5,–,"2060 nM [falling, single point]"
COc1ccc(/C=C(/C#N)C(=O)Nc2cc(C)ccc2C)cc1C(=O)O,–,"1840 nM [falling, partial curve]","23100 nM [rising, single point]"
C/C(CCN1CCc2nc(-c3ccccc3)c(-c3ccccc3)cc2C1)=N\O[C@H](C)c1cn([C@H](CO)Cc2ccccc2)nn1,7.08,–,"23100 nM [rising, single point]"
Cc1ccc(S(=O)(=O)CC(O)COc2ccc(C#N)cc2)cc1 (stereo not drawn),-38.8,"32600 nM [falling, single point]",–
Cc1ccc(C(=O)O)cc1NC(=S)NC(=O)c1ccc([N+](=O)[O-])cc1Cl,2.17,–,–
C/C(=N\NC(=O)CSc1ncccn1)c1ccc2c(c1)OCCO2,–,–,"580 nM [rising, single point]"
O=C(COC(=O)CC12CC3CC(CC(C3)C1)C2)Nc1ncc(Cl)cc1Cl,-38.4,"517 nM [falling, full curve]","1300 nM [falling, full curve]"
CCN(CC)S(=O)(=O)c1cccc(C(=O)N2CCCc3ccccc32)c1,10.1,–,"32600 nM [rising, single point]"
CC(=O)Nc1ccc(-c2nnc(SCC(=O)NCc3ccco3)n2C)cc1,-14.8,–,"5.8 nM [falling, full curve, poor fit]"
COC(=O)Cn1ncc2c3ccccc3n(Cc3ccccc3)c2c1=O,-6.38,"9.2 nM [rising, full curve, poor fit]","1460 nM [rising, partial curve]"
CN(C)CCCN1C(=O)C(=O)/C(=C(/O)c2ccncc2)C1c1ccccc1 (stereo not drawn),-10.7,–,"82 nM [falling, full curve, poor fit]"
CN1CCN(c2oc(-c3ccccc3)nc2S(=O)(=O)c2ccc(Br)cc2)CC1,35.8,"820 nM [rising, full curve, poor fit]","14600 nM [rising, partial curve]"
Cc1ccnc(NS(=O)(=O)c2cccc3nsnc23)c1,-0.74,–,–
COc1ccccc1C1=CC(=O)C[C@H](c2ccc3c(c2)OCO3)C1,-9.63,–,"366 nM [rising, full curve, poor fit]"
Cc1cccc(N(C)S(=O)(=O)c2ccc3c(c2)NC(=O)CC(=O)N3)c1,6.77,–,"29100 nM [rising, single point]"
Cc1cccc2[nH]c3c(N4CC=C(c5ccc(F)cc5)CC4)ncnc3c12,-28.5,–,"32600 nM [falling, single point]"
CCOC(=O)N1CCN(c2cc3nccnc3cc2F)CC1,54,"13000 nM [rising, partial curve]","6510 nM [rising, single point]"
CC1CCCCN1C(=O)COC(=O)CNC(=O)c1sc2ccccc2c1Cl (stereo not drawn),11,"1300 nM [falling, full curve]","1300 nM [falling, full curve]"

# Two compounds from above, showing only cell number change [%]:
SMILES,cell number change [%]
CN(C)CCCN1C(=O)C(=O)/C(=C(/O)c2ccncc2)C1c1ccccc1 (stereo not drawn),-10.7
Cc1cccc2[nH]c3c(N4CC=C(c5ccc(F)cc5)CC4)ncnc3c12,-28.5
